{"source": "PubChem BioAssay AID1224830 (NIAID, 2016)", "assay": "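Genes whose knock-down alters the TNF-alpha reporter response to LPS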 (primary screen)", "cells": "human THP-1 monocytic leukaemia cells, TNF dual-luciferase reporter clone, PMA-differentiated to macrophage-like cells", "knock-down reagent": "siRNA pool against human genes, 50 nM", "timing": "LPS for 4 h, given about 3 days after siRNA transfection", "challenge": "bacterial LPS (TLR4 ligand), 10 ng/ml", "detection": "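TNF firefly reporter luminescence divided by renilla, normalised to the plate median, then turned into a robust z-score for each replicate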", "reading the numbers": "TNF reporter robust z-score: higher = stronger TNF reporter response to LPS", "hit rule": "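a well is active when its z-score exceeds 2.8 or falls below -1.5; control wells carry no call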", "note": "This is an unselected part of about 18,000 reagents tested. Of all reagents, about 2,900 (16%) got an active call. 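Calls are made per well; low scores hint the gene aids the LPS response, high scores that it dampens it.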 Entries without a mark were called inactive. Repeated entries: four replicate wells of each siRNA pool."}
{"gene knocked down":"FPGS (folylpolyglutamate synthase)","TNF reporter robust z-score":"-1.75 (active)"}
{"gene knocked down":"FPGS (folylpolyglutamate synthase)","TNF reporter robust z-score":"-1.69 (active)"}
{"gene knocked down":"FPGS (folylpolyglutamate synthase)","TNF reporter robust z-score":"-1.77 (active)"}
{"gene knocked down":"FPGS (folylpolyglutamate synthase)","TNF reporter robust z-score":"-1.96 (active)"}
{"gene knocked down":"OGFRL1 (opioid growth factor receptor like 1)","TNF reporter robust z-score":0.14}
{"gene knocked down":"OGFRL1 (opioid growth factor receptor like 1)","TNF reporter robust z-score":-0.61}
{"gene knocked down":"OGFRL1 (opioid growth factor receptor like 1)","TNF reporter robust z-score":-0.78}
{"gene knocked down":"OGFRL1 (opioid growth factor receptor like 1)","TNF reporter robust z-score":0.37}
{"gene knocked down":"EMP1 (epithelial membrane protein 1)","TNF reporter robust z-score":2.47}
{"gene knocked down":"EMP1 (epithelial membrane protein 1)","TNF reporter robust z-score":2.17}
{"gene knocked down":"EMP1 (epithelial membrane protein 1)","TNF reporter robust z-score":1.82}
{"gene knocked down":"EMP1 (epithelial membrane protein 1)","TNF reporter robust z-score":"3.27 (active)"}
{"gene knocked down":"PIP4P2 (phosphatidylinositol-4,5-bisphosphate 4-phosphatase 2)","TNF reporter robust z-score":0.17}
{"gene knocked down":"PIP4P2 (phosphatidylinositol-4,5-bisphosphate 4-phosphatase 2)","TNF reporter robust z-score":1.29}
{"gene knocked down":"PIP4P2 (phosphatidylinositol-4,5-bisphosphate 4-phosphatase 2)","TNF reporter robust z-score":0.25}
{"gene knocked down":"PIP4P2 (phosphatidylinositol-4,5-bisphosphate 4-phosphatase 2)","TNF reporter robust z-score":2.31}
{"gene knocked down":"UBE2E1 (ubiquitin conjugating enzyme E2 E1)","TNF reporter robust z-score":-0.56}
{"gene knocked down":"UBE2E1 (ubiquitin conjugating enzyme E2 E1)","TNF reporter robust z-score":0.01}
{"gene knocked down":"UBE2E1 (ubiquitin conjugating enzyme E2 E1)","TNF reporter robust z-score":-0.84}
{"gene knocked down":"UBE2E1 (ubiquitin conjugating enzyme E2 E1)","TNF reporter robust z-score":-0.16}

Records listed so far whose gene name starts with E or e (4):
{"gene knocked down":"EMP1 (epithelial membrane protein 1)","TNF reporter robust z-score":2.47}
{"gene knocked down":"EMP1 (epithelial membrane protein 1)","TNF reporter robust z-score":2.17}
{"gene knocked down":"EMP1 (epithelial membrane protein 1)","TNF reporter robust z-score":1.82}
{"gene knocked down":"EMP1 (epithelial membrane protein 1)","TNF reporter robust z-score":"3.27 (active)"}

Next entries follow.
{"gene knocked down":"KRT7 (keratin 7)","TNF reporter robust z-score":1.83}
{"gene knocked down":"KRT7 (keratin 7)","TNF reporter robust z-score":1.67}
{"gene knocked down":"KRT7 (keratin 7)","TNF reporter robust z-score":1.86}
{"gene knocked down":"KRT7 (keratin 7)","TNF reporter robust z-score":1.38}
{"gene knocked down":"GALT (galactose-1-phosphate uridylyltransferase)","TNF reporter robust z-score":-0.14}
{"gene knocked down":"GALT (galactose-1-phosphate uridylyltransferase)","TNF reporter robust z-score":-0.29}
{"gene knocked down":"GALT (galactose-1-phosphate uridylyltransferase)","TNF reporter robust z-score":-0.96}
{"gene knocked down":"GALT (galactose-1-phosphate uridylyltransferase)","TNF reporter robust z-score":-0.46}
{"gene knocked down":"RAD1 (RAD1 checkpoint DNA exonuclease)","TNF reporter robust z-score":0.09}
{"gene knocked down":"RAD1 (RAD1 checkpoint DNA exonuclease)","TNF reporter robust z-score":0.18}
{"gene knocked down":"RAD1 (RAD1 checkpoint DNA exonuclease)","TNF reporter robust z-score":0.08}
{"gene knocked down":"RAD1 (RAD1 checkpoint DNA exonuclease)","TNF reporter robust z-score":2.56}
{"gene knocked down":"TSGA10IP (testis specific 10 interacting protein)","TNF reporter robust z-score":1.49}
{"gene knocked down":"TSGA10IP (testis specific 10 interacting protein)","TNF reporter robust z-score":1.41}
{"gene knocked down":"TSGA10IP (testis specific 10 interacting protein)","TNF reporter robust z-score":1.32}
{"gene knocked down":"TSGA10IP (testis specific 10 interacting protein)","TNF reporter robust z-score":1.65}
{"gene knocked down":"FGF21 (fibroblast growth factor 21)","TNF reporter robust z-score":0.14}
{"gene knocked down":"FGF21 (fibroblast growth factor 21)","TNF reporter robust z-score":1.45}
{"gene knocked down":"FGF21 (fibroblast growth factor 21)","TNF reporter robust z-score":-0.12}
{"gene knocked down":"FGF21 (fibroblast growth factor 21)","TNF reporter robust z-score":0.59}
{"gene knocked down":"DMRT3 (doublesex and mab-3 related transcription factor 3)","TNF reporter robust z-score":-1.35}
{"gene knocked down":"DMRT3 (doublesex and mab-3 related transcription factor 3)","TNF reporter robust z-score":-1.03}
{"gene knocked down":"DMRT3 (doublesex and mab-3 related transcription factor 3)","TNF reporter robust z-score":-1.38}
{"gene knocked down":"IFNL3 (interferon lambda 3)","TNF reporter robust z-score":-0.39}
{"gene knocked down":"IFNL3 (interferon lambda 3)","TNF reporter robust z-score":0.3}
{"gene knocked down":"IFNL3 (interferon lambda 3)","TNF reporter robust z-score":0.14}
{"gene knocked down":"IFNL3 (interferon lambda 3)","TNF reporter robust z-score":-0.35}
